In PubChem BioAssay AID2685 (National Center for Advancing Translational Sciences (NCATS), 2010):
The other results are listed elsewhere or left out. The main result of the screen is listed elsewhere. These columns were measured beside it and carry no call. The list favours compounds with an active or inconclusive main result. The note in brackets gives the kind of curve behind each potency; many fits are weak.

Experiment: qHTS Assay for Lipid Storage Modulators in Drosophila S3 Cells;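 on cell number change: cells counted by Cell Tracker Red CMTPX staining in the red channel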
Details: BODIPY lipid droplet fluorescence, 18-24 h; for cell number change: measured here: cell count max response, cells fed with added oleic acid
Method in brief: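 Drosophila S3 cells got compounds at several concentrations plus oleic acid (400 uM solution). Laser-scanning cytometry with 488 nm excitation read lipid droplets at 500-530 nm and cells at 575-640 nm. Percent activity was relative to 20 uM Triacsin C.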

[1] = measured here: lipid fluorescence (Fed channel) AC50, cells fed with added oleic acid
[2] = measured here: cell number channel AC50, cells fed with added oleic acid

Compound	cell number change	AC50 [1]	AC50 [2]
CC(=O)NCCSCCNC(C)=O	0.611%	0.164 µM [falling, full curve, poor fit]	–
CCC(C(=O)N1CCN(S(C)(=O)=O)CC1)c1ccccc1 (stereo not given)	-180%	–	29.1 µM [falling, single point]
COc1ccc(CCN2C(=O)CSC2=Nc2ccc(C(C)C)cc2)cc1OC	-42.5%	–	29.1 µM [falling, single point]
CSC[C@H](NC(=O)COc1cc2c(c3oc(=O)c(C)c(C)c13)CCC(C)(C)O2)C(=O)O	19.1%	3.26 µM [rising, full curve]	–
COC(=O)C1=CNC=C(C(=O)OC)C1c1ccc(Cl)cc1	–	1.3 µM [rising, partial curve]	1.03 µM [rising, single point]
Cc1ccc(S(=O)(=O)N2CCCC2C(=O)NCCc2ccccc2)cc1 (stereo not given)	2.03%	6.51 µM [falling, single point]	0.0731 µM [falling, full curve, poor fit]
[O-]/C(=C(\C(=S)Nc1cccc2ccccc12)[n+]1ccccc1)c1ccc(OC(F)F)cc1	6.52%	–	–
O=[N+]([O-])c1cccc(C2CC(c3ccccc3)=NN2c2ccccc2)c1 (stereo not given)	-47.2%	–	–
CCOC(=O)C(CC)(CC)C(=O)/C=C/c1ccc(OC)cc1	14.5%	29.1 µM [rising, single point]	–
COCCCNC(=O)c1cc(-c2cccnc2)nc2ccc(S(=O)(=O)N3CCCCCC3)cc12	28%	0.13 µM [rising, full curve, poor fit]	0.164 µM [rising, full curve, poor fit]
COc1cc(OCC(=O)NC(C)C)cc2c1C(=O)O[C@@H](C)CCCC(=O)CCCCC2	1.39%	6.51 µM [rising, single point]	–
COc1ccc(OC)c(S(=O)(=O)NCCc2csc(-c3cccnc3)n2)c1	-3.4%	0.291 µM [rising, full curve, poor fit]	–
COc1ccc(NC(=O)CN2C(=O)NC(C)(c3ccccc3)C2=O)c(OC)c1 (stereo not given)	-31.6%	0.0891 µM [rising, full curve, poor fit]	5.17 µM [falling, partial curve]
Cc1cccc(-c2nnc(-c3cccc(NC(=O)Cc4cccs4)c3)o2)c1	-13%	–	–
CC(=O)N1c2ccc(S(=O)(=O)N3CCC(C(=O)N4CCC(C)CC4)CC3)cc2CC1C (stereo not given)	–	–	0.731 µM [falling, single point]
COc1ccc(NS(=O)(=O)c2ccc(OC)c(NC(=O)CCC3CCCC3)c2)cc1	10.6%	–	–
Cc1cnc(C(=O)OC(C)C(=O)Nc2ccc(Cl)cn2)cn1 (stereo not given)	16.5%	–	–
C/C=C(/C(=C/C)c1ccc(O)cc1)c1ccc(O)cc1	-59%	29.1 µM [falling, single point]	29.1 µM [falling, single point]
CC(C)(CNC(=O)c1ccc(Br)o1)CNC(=O)c1ccc(Br)o1	-11%	0.58 µM [falling, single point]	–

Compound	cell number change	AC50 [1]	AC50 [2]
O=C(Nc1ccc(N2CCOCC2)cc1)c1ccc(Cl)nc1	34.3%	–	18.4 µM [rising, single point]
Cc1ccccc1N(C)S(=O)(=O)c1nnc(NC(=O)c2ccco2)s1	22.5%	0.731 µM [falling, full curve]	–
Cc1cccc(NC(=O)CNC(=O)c2cccc(-n3cccc3)c2)c1C	–	6.51 µM [rising, single point]	–
Nc1[nH]n2c(=O)cc(-c3ccccc3)nc2c1N=Nc1ccc2c(c1)OCO2	-25.6%	29.1 µM [falling, partial curve, poor fit]	–
COc1cc(NC(=S)N2CCCC(C)C2)c(OC)cc1Cl (stereo not given)	-9.34%	0.00411 µM [falling, full curve, poor fit]	–
O=c1c2ccccc2oc2ccc(Oc3ccccc3)cc12	11%	18.4 µM [rising, partial curve]	–
CC1C(=O)N(Cc2cccc(F)c2)c2ccccc2N1C(=O)c1ccccc1 (stereo not given)	22%	29.1 µM [rising, single point]	–
CC(=O)Nc1ccc(S(=O)(=O)N(C)CC(=O)N/N=C/c2ccncc2)cc1	41.3%	–	29.1 µM [rising, single point]
CCOc1ccc(NC(=O)c2ccco2)cc1	-148%	29.1 µM [falling, single point]	18.4 µM [falling, single point]
COc1ccc(C(C(=O)NC2CCCC2)N(C(=O)c2ccco2)c2cc3c(cc2C(C)=O)OCO3)cc1 (stereo not given)	5.42%	–	–
CC(=O)N1CCc2[nH]c3ccc(C)cc3c2C1	22.8%	–	–
CCOc1ncccc1C(=O)N1CCN(S(=O)(=O)c2ccc3c(c2)OCCO3)CC1	0.675%	29.1 µM [falling, single point]	–
CC(C)Oc1ccc(C(=O)/C=C2/C(=O)Nc3ccccc32)cc1	-50.5%	23.1 µM [falling, single point]	18.4 µM [falling, single point]
O=C(Nc1nnc(SCc2ccc(Cl)cc2)s1)c1cnccn1	3.61%	0.13 µM [falling, full curve, poor fit]	0.00651 µM [falling, full curve, poor fit]
CNc1n[nH]c(=S)s1	24.8%	–	–
COc1ccc(-c2cc(C(=O)Nc3cc(C)ccc3O)no2)cc1	4.17%	0.58 µM [rising, single point]	6.51 µM [rising, single point]
Cc1ccc(C(C#N)c2ccc(Cl)nn2)cc1 (stereo not given)	-40.9%	23.1 µM [falling, single point]	20.6 µM [falling, single point]
CCCCNC(=O)/C=C/c1ccc(OC)c(Br)c1	98.2%	–	13 µM [rising, partial curve]
Cc1ccc(N2CC(C(=O)OCc3nc(N)nc(Nc4ccccc4C)n3)CC2=O)cc1 (stereo not given)	-5.82%	2.06 µM [falling, partial curve, poor fit]	–

Taken from above for reference:
Compound	cell number change	AC50 [1]	AC50 [2]
COc1cc(NC(=S)N2CCCC(C)C2)c(OC)cc1Cl (stereo not given)	-9.34%	0.00411 µM [falling, full curve, poor fit]	–
O=c1c2ccccc2oc2ccc(Oc3ccccc3)cc12	11%	18.4 µM [rising, partial curve]	–
